Source: paper PMC3979408
Results are given in words; binding and its absence hold for the method and conditions named. Binding seen in cells or lysates may run through a third protein. Some binding calls cover weakened binding; strength is not graded here.

The chains behind the UniProt entries cited, without tags or fusion partners.
UniProt Q15596: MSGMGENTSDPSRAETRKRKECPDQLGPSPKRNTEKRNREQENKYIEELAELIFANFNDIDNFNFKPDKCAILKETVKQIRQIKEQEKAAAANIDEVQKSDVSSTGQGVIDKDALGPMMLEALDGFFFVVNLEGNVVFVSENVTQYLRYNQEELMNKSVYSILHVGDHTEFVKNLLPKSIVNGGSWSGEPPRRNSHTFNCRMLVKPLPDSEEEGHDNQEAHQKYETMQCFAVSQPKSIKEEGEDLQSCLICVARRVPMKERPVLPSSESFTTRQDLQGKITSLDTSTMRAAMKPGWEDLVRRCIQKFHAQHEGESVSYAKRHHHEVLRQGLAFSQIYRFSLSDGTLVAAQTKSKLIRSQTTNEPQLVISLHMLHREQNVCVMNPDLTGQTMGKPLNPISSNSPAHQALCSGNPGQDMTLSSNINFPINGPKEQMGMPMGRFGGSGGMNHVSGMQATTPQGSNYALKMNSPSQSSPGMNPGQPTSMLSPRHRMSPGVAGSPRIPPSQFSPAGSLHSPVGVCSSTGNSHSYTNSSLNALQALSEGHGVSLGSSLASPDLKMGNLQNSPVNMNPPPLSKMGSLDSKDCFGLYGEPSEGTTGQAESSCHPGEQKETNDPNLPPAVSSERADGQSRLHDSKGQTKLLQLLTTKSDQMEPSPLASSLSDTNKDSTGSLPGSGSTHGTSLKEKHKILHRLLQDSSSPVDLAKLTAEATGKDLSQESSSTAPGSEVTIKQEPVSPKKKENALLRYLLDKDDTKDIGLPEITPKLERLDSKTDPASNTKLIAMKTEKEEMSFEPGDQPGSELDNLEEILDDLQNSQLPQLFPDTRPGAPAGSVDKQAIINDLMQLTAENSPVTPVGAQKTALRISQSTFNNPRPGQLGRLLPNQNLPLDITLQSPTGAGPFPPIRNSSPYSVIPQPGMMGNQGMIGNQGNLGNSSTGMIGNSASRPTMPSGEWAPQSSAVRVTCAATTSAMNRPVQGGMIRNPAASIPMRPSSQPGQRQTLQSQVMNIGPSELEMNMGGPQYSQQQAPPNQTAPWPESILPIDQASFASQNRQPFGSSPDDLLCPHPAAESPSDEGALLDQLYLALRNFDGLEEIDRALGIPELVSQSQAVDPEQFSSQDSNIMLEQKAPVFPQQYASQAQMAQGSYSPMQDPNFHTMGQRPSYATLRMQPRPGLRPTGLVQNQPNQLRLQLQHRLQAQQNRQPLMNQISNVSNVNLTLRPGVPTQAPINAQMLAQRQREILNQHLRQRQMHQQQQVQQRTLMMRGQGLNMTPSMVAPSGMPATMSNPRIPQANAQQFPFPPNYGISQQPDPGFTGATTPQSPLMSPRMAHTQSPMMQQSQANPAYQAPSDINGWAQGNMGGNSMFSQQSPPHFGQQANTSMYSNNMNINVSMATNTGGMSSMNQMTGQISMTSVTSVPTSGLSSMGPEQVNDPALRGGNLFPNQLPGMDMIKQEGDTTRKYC
UniProt P04150: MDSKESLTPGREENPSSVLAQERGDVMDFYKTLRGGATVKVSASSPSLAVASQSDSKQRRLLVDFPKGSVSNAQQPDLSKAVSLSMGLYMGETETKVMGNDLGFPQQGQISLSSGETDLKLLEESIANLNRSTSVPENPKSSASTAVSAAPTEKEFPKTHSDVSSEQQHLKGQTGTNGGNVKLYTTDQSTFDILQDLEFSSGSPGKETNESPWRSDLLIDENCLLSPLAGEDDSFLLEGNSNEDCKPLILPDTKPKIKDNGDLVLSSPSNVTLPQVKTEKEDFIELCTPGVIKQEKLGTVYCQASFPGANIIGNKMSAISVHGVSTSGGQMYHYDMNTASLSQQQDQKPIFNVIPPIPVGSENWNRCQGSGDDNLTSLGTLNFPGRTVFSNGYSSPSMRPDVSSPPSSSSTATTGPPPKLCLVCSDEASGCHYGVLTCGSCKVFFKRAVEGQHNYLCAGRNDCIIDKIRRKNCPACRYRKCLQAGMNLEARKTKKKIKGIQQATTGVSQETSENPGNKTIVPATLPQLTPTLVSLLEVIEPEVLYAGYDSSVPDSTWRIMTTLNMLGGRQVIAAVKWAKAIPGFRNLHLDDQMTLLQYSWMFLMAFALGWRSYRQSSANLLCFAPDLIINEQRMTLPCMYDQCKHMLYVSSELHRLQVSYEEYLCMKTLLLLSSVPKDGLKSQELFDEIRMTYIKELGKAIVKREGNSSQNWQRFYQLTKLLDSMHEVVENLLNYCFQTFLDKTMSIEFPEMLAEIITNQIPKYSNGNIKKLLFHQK

Legend:
[1] = biological target: GRIP1/SRC2, endogenous (human (endogenous in A549)) (UniProt Q15596); assay: co-IP; A549 cells, vehicle or 100 nM Dex for 1 h; immunoprecipitation with a GRIP1 antibody; immunoblot for GRIP1 and Merm1
[2] = biological target: glucocorticoid receptor (GR), endogenous (human (endogenous in A549)) (UniProt P04150); assay: co-IP; A549 cells, vehicle or 100 nM Dex for 1 h; DNase-treated lysate, anti-GR antibody (BD Bioscience) and anti-mouse IgG Dynabeads at 4 °C; immunoblot for GR and Merm1; mouse IgG as control
[3] = biological target: Halo-tag glucocorticoid receptor (UniProt P04150); assay: pull-down; A549 cells transfected with Halo-tag-GR or Halo-tag control vector, vehicle or 100 nM Dex for 1 h; lysate bound to Halo-link resin, released with TEV protease; immunoblot for GR and Merm1

binding [1]: binds weakly
binding [2]: no binding
binding [3]: no binding
B1: WBSCR22/metastasis-related methyltransferase 1 (Merm1), endogenous (protein, UniProt O43709 1-281)
chain: MASRGRRPEHGGPPELFYDETEARKYVRNSRMIDIQTRMAGRALELLYLPENKPCYLLDIGCGTGLSGSYLSDEGHYWVGLDISPAMLDEAVDREIEGDLLLGDMGQGIPFKPGTFDGCISISAVQWLCNANKKSENPAKRLYCFFASLFSVLVRGSRAVLQLYPENSEQLELITTQATKAGFSGGMVVDYPNSAKAKKFYLCLFSGPSTFIPEGLSENQDEVEPRESVFTNERFPLRMSRRGMVRKSRAWVLEKKERHRRQGREVRPDTQYTGRKRKPRF
